Results are given in words; binding and its absence hold for the method and conditions named. Binding calls can cover weak binding; strength is not graded here.
Target: complement C2a (S679A), vWA–SP fragment of C2 (human) (UniProt P06681)
Experiment: cryo-EM structure

Chains of the proteins cited; added tags and fusions are not shown. Lines headed by an entry give the natural chain unless they say otherwise; changes in a name come on top.
UniProt P06681: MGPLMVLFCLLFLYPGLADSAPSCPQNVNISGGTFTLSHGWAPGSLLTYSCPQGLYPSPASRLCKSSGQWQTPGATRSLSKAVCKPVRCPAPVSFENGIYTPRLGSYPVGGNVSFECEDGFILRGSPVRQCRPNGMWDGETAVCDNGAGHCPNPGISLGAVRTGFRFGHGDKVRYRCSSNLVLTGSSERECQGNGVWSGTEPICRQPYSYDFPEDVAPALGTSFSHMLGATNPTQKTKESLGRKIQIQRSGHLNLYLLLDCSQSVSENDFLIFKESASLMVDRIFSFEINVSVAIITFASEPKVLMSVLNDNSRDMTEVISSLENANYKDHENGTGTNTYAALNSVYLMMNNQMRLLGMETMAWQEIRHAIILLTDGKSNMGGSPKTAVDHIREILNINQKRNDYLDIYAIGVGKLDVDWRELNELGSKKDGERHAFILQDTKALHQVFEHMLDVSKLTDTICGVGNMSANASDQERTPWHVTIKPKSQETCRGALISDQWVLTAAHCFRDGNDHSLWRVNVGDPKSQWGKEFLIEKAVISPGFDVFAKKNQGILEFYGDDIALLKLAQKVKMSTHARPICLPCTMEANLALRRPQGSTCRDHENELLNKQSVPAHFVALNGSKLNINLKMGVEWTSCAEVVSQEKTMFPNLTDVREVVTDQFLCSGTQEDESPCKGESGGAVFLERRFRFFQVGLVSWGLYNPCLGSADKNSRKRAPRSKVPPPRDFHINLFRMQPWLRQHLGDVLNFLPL
UniProt P01024: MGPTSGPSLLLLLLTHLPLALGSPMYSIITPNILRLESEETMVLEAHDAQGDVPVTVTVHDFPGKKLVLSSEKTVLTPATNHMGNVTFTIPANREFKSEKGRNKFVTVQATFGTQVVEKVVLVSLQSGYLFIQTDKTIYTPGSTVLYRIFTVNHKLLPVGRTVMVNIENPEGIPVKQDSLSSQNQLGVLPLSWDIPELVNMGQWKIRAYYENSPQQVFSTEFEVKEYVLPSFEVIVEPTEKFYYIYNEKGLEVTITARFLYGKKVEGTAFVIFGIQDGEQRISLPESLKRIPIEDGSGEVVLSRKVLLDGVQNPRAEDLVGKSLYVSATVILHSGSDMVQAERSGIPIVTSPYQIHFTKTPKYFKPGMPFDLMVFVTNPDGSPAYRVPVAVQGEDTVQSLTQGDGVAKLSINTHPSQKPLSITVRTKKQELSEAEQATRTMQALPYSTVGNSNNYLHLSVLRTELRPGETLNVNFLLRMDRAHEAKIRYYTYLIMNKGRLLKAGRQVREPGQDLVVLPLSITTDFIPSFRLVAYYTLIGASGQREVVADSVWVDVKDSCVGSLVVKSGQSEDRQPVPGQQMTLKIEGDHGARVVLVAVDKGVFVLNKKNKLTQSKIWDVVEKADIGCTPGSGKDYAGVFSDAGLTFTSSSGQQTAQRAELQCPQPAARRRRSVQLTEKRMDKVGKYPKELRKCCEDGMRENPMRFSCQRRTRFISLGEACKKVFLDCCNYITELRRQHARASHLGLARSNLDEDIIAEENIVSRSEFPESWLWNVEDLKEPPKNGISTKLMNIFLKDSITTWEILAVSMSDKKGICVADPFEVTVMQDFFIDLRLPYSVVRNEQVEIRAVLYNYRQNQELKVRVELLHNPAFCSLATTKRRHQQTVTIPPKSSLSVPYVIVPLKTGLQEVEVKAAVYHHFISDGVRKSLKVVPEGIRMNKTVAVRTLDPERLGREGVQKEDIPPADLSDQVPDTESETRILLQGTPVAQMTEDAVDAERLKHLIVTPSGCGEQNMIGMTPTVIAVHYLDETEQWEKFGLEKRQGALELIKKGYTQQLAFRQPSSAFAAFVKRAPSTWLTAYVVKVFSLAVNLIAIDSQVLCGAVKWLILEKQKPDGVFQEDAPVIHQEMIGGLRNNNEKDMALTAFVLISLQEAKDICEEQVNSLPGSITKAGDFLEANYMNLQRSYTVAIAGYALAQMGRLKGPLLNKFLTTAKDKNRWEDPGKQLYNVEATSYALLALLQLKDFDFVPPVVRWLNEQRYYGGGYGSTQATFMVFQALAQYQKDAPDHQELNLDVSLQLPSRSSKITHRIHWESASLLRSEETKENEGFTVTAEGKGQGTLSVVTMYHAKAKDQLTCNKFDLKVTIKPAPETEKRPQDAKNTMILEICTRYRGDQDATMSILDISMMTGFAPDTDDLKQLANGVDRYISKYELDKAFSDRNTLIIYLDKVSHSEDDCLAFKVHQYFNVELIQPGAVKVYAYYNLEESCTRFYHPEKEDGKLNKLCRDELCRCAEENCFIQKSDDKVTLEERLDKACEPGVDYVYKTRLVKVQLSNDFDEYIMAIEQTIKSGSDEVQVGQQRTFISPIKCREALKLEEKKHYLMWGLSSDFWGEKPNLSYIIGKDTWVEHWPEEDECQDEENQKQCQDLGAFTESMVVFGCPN

complement C3 (from UniProt P01024 23-667; P01024 672-1663)
binding: binds

Source: publication doi:10.1101/2025.08.09.669456
